Measured values taken from PubChem BioAssay AID2685 (National Center for Advancing Translational Sciences (NCATS), 2010).
This is one part of the list. The main result of the screen is listed elsewhere. These columns were measured beside it and carry no call. Compounds called inactive in the main read-out are mostly missing here. Potencies come from curve fits of mixed quality, noted in brackets.

Assay: qHTS Assay for Lipid Storage Modulators in Drosophila S3 Cells;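 for cell number change: cells counted by Cell Tracker Red CMTPX staining in the red channel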
Settings: BODIPY lipid droplet fluorescence, 18-24 h; for cell number change: measured here: cell count max response, cells fed with added oleic acid
Summary of the method: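 Drosophila S3 cells got compounds at several concentrations plus oleic acid (400 uM solution). Laser-scanning cytometry with 488 nm excitation read lipid droplets at 500-530 nm and cells at 575-640 nm. Percent activity was relative to 20 uM Triacsin C.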

[1] = measured here: cell number channel AC50, cells fed with added oleic acid
[2] = measured here: lipid fluorescence (Fed channel) AC50, cells fed with added oleic acid

Structure (SMILES)	cell number change [%]	AC50 [1]	AC50 [2]
O=C(c1cccc(NS(=O)(=O)c2ccc(F)c(F)c2)c1)N1CCCCC1	-7.15		
O=C(C1CCCO1)N1CCN(C(=S)Nc2ccccc2)CC1 (stereo not drawn)	76.8	16.4 µM [rising, single point]	1.84 µM [rising, single point]
CC(=O)[C@@]1(O)CCC2C3C=CC4=CC(=O)CC[C@]4(C)C3CC[C@@]21C (stereo partly drawn)	4.82	2.59 µM [rising, partial curve, poor fit]	29.1 µM [rising, single point]
CN(C)C(/C=C/Nc1ccc(F)cc1F)=C(C#N)C#N	-81.4	18.4 µM [falling, partial curve, poor fit]	23.1 µM [falling, partial curve]
COc1ccccc1N(CC(=O)Nc1ccc(Br)cc1F)S(=O)(=O)c1cccs1	98	6.51 µM [rising, partial curve]	
CC(=O)OCC(=O)[C@@]1(O)CC[C@H]2[C@@H]3CCC4=CC(=O)C=C[C@]4(C)[C@H]3C(=O)C[C@@]21C	2.78		
O=C(Cn1cnc2ccc(Cl)cc2c1=O)NC1CCS(=O)(=O)C1 (stereo not drawn)	-5		
Cc1ccc(CN(CC(=O)NCCc2ccccc2)C(=O)CCCC(=O)Nc2cc(C)on2)cc1	13.6		
COc1cc(CC(=O)Nc2ccc3c(c2)CCC3)cc(OC)c1OC	-41.2	0.92 µM [falling, partial curve]	20.6 µM [falling, single point]
CC(C)(C)OC(=O)N/N=C/c1ccc(N2CCOCC2)s1	-56.5	2.06 µM [falling, full curve]	0.731 µM [falling, full curve, poor fit]
CCNC(=S)N/N=C/c1ccc(F)cc1	56.4		
O=C(Nc1nc(-c2ccccn2)cs1)c1ccc([N+](=O)[O-])o1	-17		29.1 µM [falling, single point]
CC1(C)Cc2nc(NC3CCCCC3)c(C#N)cc2CO1	-28.5		14.6 µM [falling, partial curve]
CCS(=O)(=O)NCC(c1cccnc1)N1CCN(c2ccccc2)CC1 (stereo not drawn)			1.84 µM [rising, partial curve]
COc1ccc(CCN2CC(C(=O)Nc3cc(F)ccc3F)CC2=O)cc1OC (stereo not drawn)	-19.3		
Cc1ccc(CN2C(=O)CSC(C)C2=O)cc1 (stereo not drawn)	-17.6	0.103 µM [falling, full curve, poor fit]	
COc1cc(C)c(NC(=O)C2CCN(S(=O)(=O)c3cccs3)CC2)cc1OC	7.89		6.51 µM [rising, single point]
Cc1nn(Cc2ccccc2)c(Cl)c1C(=O)OC(C)C#N (stereo not drawn)		0.103 µM [rising, single point]	0.116 µM [rising, partial curve, poor fit]
COc1cc(OC)c(C(=O)N/N=C/c2ccoc2)cc1OC	-28.2		29.1 µM [rising, single point]
NC(=O)CN1CCOCCN(CC(N)=O)CCOCC1	-8.97		4.11 µM [falling, full curve, poor fit]

Structure (SMILES)	cell number change [%]	AC50 [1]	AC50 [2]
O=C(NS(=O)(=O)Nc1ccc(Cl)cc1)c1c[nH]c2ccccc12	-4.28		
CC/C(C)=N/Nc1ccc(S(=O)(=O)N2CCCC2)cc1[N+](=O)[O-]	2.93		6.51 µM [falling, partial curve, poor fit]
O=C(NNc1c(F)c(F)cc(F)c1F)c1ccc(Cl)nc1	6.45		29.1 µM [rising, single point]
C=CCN1C(=O)/C(=C/c2ccc(-c3ccc(F)cc3)o2)SC1=S	16.6		
COc1cc(C)c(Cl)cc1S(=O)(=O)n1cnc(C)c1	6.79		0.13 µM [rising, full curve, poor fit]
CC(=O)n1cc(-c2ccncc2)c2ccccc21	49.3	10.3 µM [rising, partial curve]	3.66 µM [rising, full curve]
COc1cc(/C=N/NC(=O)c2cccc(NC(=O)c3ccccc3C)c2)ccc1O	-10.5		
O=C(O)CC1S/C(=N\N=C2CCCCCCC2)N(c2ccccc2)C1=O (stereo not drawn)	-41	7.31 µM [falling, single point]	
CC1CCN(S(=O)(=O)c2ccc(NC(=O)CN3CCOCC3)cc2)CC1	15.6		6.51 µM [falling, partial curve]
O=C(CSCc1ccccc1)NC1CCSC1=O (stereo not drawn)	15.5		18.4 µM [rising, partial curve]
O=C(Nc1ccc(Cl)cn1)c1ccc2c(c1)OCCO2	-37.9	29.1 µM [falling, single point]	25.9 µM [falling, partial curve, poor fit]
Cc1ccc(C)c2[nH]c(=O)c(C(c3nnnn3Cc3ccco3)N3CCc4ccccc4C3)cc12 (stereo not drawn)	-28.9		13 µM [falling, partial curve]
CCOc1ccc(S(=O)(=O)N(C)c2ccc(OCC(=O)NCc3cccnc3)cc2)cc1			29.1 µM [rising, single point]
O=C(C1=C[C@@H](c2ccc(C(F)(F)F)cc2)C[C@@H](OCCCCO)O1)N1CCN(Cc2ccccc2)CC1	-13.5		29.1 µM [falling, single point]
CC(=O)c1sc(NC(=O)c2cc3c(C)nn(-c4ccccc4)c3s2)nc1C	3.33		29.1 µM [rising, single point]
CCOc1ccc(C(=O)Nc2ccccc2N2CCN(C(=O)c3ccccc3)CC2)cc1[N+](=O)[O-]	-41.2	1.46 µM [falling, full curve]	0.517 µM [falling, full curve]
O=C(CSc1nnc(C2CC2)n1-c1ccccc1)NCc1ccco1	12.7	0.103 µM [rising, full curve, poor fit]	
COCCNC(=O)C(c1ccc(Cl)cc1)N(C(=O)CCC(=O)Nc1ccccn1)C1CCCC1 (stereo not drawn)	9.76		20.6 µM [rising, single point]
CC(C(=O)NC(=O)NC1CCCCC1)N1CCN(c2ccc(O)cc2)CC1 (stereo not drawn)	4.48		29.1 µM [falling, single point]
Cc1cc(C)nc(SCC(=O)N/N=C/c2cccn2-c2ccc(O)cc2)n1	39.4	3.66 µM [rising, full curve]	6.51 µM [rising, single point]

At a glance, 3 of the compounds above:
Structure (SMILES)	cell number change [%]	AC50 [1]	AC50 [2]
CCOc1ccc(C(=O)Nc2ccccc2N2CCN(C(=O)c3ccccc3)CC2)cc1[N+](=O)[O-]	-41.2	1.46 µM [falling, full curve]	0.517 µM [falling, full curve]
O=C(CSc1nnc(C2CC2)n1-c1ccccc1)NCc1ccco1	12.7	0.103 µM [rising, full curve, poor fit]	
COCCNC(=O)C(c1ccc(Cl)cc1)N(C(=O)CCC(=O)Nc1ccccn1)C1CCCC1 (stereo not drawn)	9.76		20.6 µM [rising, single point]

Additional entries follow:

Structure (SMILES)	cell number change [%]	AC50 [1]	AC50 [2]
Cc1ccccc1/C=N/Nc1nc2ccccc2c(=O)n1O	45	1.84 µM [rising, partial curve]	2.06 µM [rising, partial curve]
COc1ccc(C)cc1S(=O)(=O)N(CC(=O)NCc1ccco1)c1ccc(C)cc1			0.116 µM [falling, full curve, poor fit]
C/C(=C\C(=S)Nc1ccccc1)Nc1ccc2ccccc2c1	-17.3	3.66 µM [rising, partial curve]	3.66 µM [rising, partial curve]
O=C(COc1ccc2ccccc2c1)N/N=C/c1ccccn1	11.6	6.51 µM [rising, single point]	
CC(C)CNC(=O)c1cccc(Cn2cc(Cl)cn2)c1	-5.86	0.13 µM [falling, full curve, poor fit]	
CCOC(=O)c1c(N)nn(C(C)=O)c1-c1ccccc1			1.16 µM [rising, partial curve]
CC(OC(=O)CNC(=O)c1ccc(Cl)c(Cl)c1)C(=O)N1CCOCC1 (stereo not drawn)	8		
CCOC(=O)/C=C/C(=O)Nc1ccccc1-c1ccccc1NC(=O)/C=C/C(=O)OCC	-0.114		
Cc1ccc(N/C=C/C(=O)c2cccs2)cc1	26.4		23.1 µM [rising, single point]
CN(CC(=O)Nc1ccccc1Br)C(=O)c1ccccc1-c1nc2ccccc2s1	-44.2	16.4 µM [falling, partial curve, poor fit]	0.651 µM [falling, partial curve]
Cc1ncc(CO)c2cc(C(=O)Nc3cccc(F)c3)c(=Nc3cccc(C(N)=O)c3)oc12	57.7	29.1 µM [rising, single point]	
Clc1ccc(-n2c(SCc3nc4ccccc4[nH]3)nnc2-c2ccncc2)cc1	16		0.00461 µM [rising, full curve, poor fit]
COc1cc(/C(C)=N/N2CCN(Cc3ccc(C)cc3)CC2)ccc1O	-12.8		
COc1cc(NC(=O)c2cc([N+](=O)[O-])ccc2NC(=O)CN2CCN(c3ccccn3)CC2)cc(OC)c1	22.2		29.1 µM [rising, partial curve, poor fit]
CNC(=O)c1ccccc1Sc1ccccc1CO	41	29.1 µM [rising, single point]	29.1 µM [rising, single point]
COc1ccc(C2N(c3cc(Cl)ccc3OC)C(=O)C3CCCN32)cc1OC (stereo not drawn)	20.1		0.146 µM [falling, full curve]
NNC(=O)COc1ccc(C(F)(F)F)cc1	-45.2	29.1 µM [falling, single point]	29.1 µM [falling, single point]
O=C(C1CCCO1)N1N=C(c2ccc(Br)cc2)CC1c1ccco1 (stereo not drawn)	7.83	0.651 µM [falling, single point]	2.91 µM [rising, full curve]
Cc1ccccc1C(=O)N1CCC(C(=O)Nc2ccc(S(=O)(=O)N3CCCCC3)cc2)CC1	-37.4	16.4 µM [falling, single point]	10.3 µM [falling, partial curve]
